{"source": "PubChem BioAssay AID1347423", "about": "(Functional Genomics Laboratory (NCATS/FGL), 2020)", "note": "Out of some 52,000 sequences screened, about 210 (0.4%) were called active.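 The calls were made as follows: active = gene whose silencing raises cell survival under the drug, median off-target-corrected z-score across its silencing RNAs 2 or more; inactive = the rest.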 The list shows a part of the results."}
{"assay": "Resistance to Poly (ADP-Ribose) Polymerase inhibitor: Gene Identification via Genome-wide siRNA Screen", "settings": "mouse BRCA2 R2336H ES cells, olaparib, CellTiter-Glo viability; hits give high values", "outline": "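Genome-wide siRNA screen (3 siRNAs/gene, 20 nM) in mouse ES cells carrying hypomorphic BRCA2 R2336H; olaparib 500 nM added 48 h post-transfection, CellTiter-Glo viability 72 h later. Normalized to plate-median negative control; MAD z-scores, gene median, seed-adjusted.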"}
{"sequence": "GGAGAAGAAUUCUUACAGGTT against Fbxo16", "z-score": "inactive: 0.175"}
{"sequence": "GGCAUGACUUCCAUUUCCCTT against Zfp297", "z-score": "inactive: 0.341"}
{"sequence": "GGAUGUCUCAACAUUCUUCTT against V1rb1", "z-score": "inactive: 0.448"}
{"sequence": "GGAGAGUCACUGUUGAUGGTT against Sumf1", "z-score": "inactive: 1.29"}
{"sequence": "GGCAAUUGCACCAUUGAAUTT against Egfl5", "z-score": "inactive: 0.346"}
{"sequence": "GGGCAGACCUAAUAGCUUATT against Cycs", "z-score": "inactive: 0.982"}
{"sequence": "GGAAGACAAUCGCUGCGUGTT against BC037432", "z-score": "inactive: -1.02"}
{"sequence": "GCUGCGCAUCCACUUAGAUTT against 1810008K16Rik", "z-score": "inactive: -0.94"}
{"sequence": "GGUGAAAAAGUCUGACUGUTT against Ptn", "z-score": "inactive: -0.887"}
{"sequence": "GGAAGUGGACUACUUCUUCTT against Olfr1511", "z-score": "inactive: -0.859"}
{"sequence": "GGUACCUAUGCCAGUUUUGTT against Aqp12", "z-score": "inactive: -0.343"}
{"sequence": "GGGCUUCUUUGCCACACUUTT against Rho", "z-score": "inactive: -1.89"}
{"sequence": "GGGUGAAUUUUGUUUUUGUTT against Kcnj14", "z-score": "inactive: 0.585"}
{"sequence": "GCACGGUCAGUUCUGUGAUTT against Fbxl6", "z-score": "inactive: -0.984"}
{"sequence": "GGCUACUGUAGGAAGAAAUTT against 9230107O10Rik", "z-score": "inactive: -0.343"}
{"sequence": "GGUCAAGACUAGCUACUUUTT against Dfna5h", "z-score": "inactive: -0.672"}
{"sequence": "CGCAUUAUGAAUGACUACUTT against Svs1", "z-score": "inactive: -0.133"}
{"sequence": "GGUCUUUGGACCCUGUUUGTT against Tor1b", "z-score": "inactive: 1.89"}
{"sequence": "CGAAGGGAAGCAAAAUACATT against 2310026E23Rik", "z-score": "inactive: -0.094"}
{"sequence": "GGAAGUUGAAAGACUUACGTT against Tnip2", "z-score": "inactive: -1.55"}
{"sequence": "GGAACAAAACAAAUAGCUATT against BC027127", "z-score": "inactive: 1.49"}
{"sequence": "GGAUCAGACCAAACUUCAATT against Glrb", "z-score": "inactive: -0.707"}
{"sequence": "CCAGAGUUCUGGGAUUCCATT against Cyp2c66", "z-score": "inactive: -0.884"}
{"sequence": "GGAUCCUGUCAAAGAUAAUTT against Zfp592", "z-score": "inactive: -0.116"}
{"sequence": "GCGUGUAAUAUUCAUCAUATT against Tprt", "z-score": "inactive: 0.0864"}
{"sequence": "GGGAUUCGGGUUCGUAACUTT against Rbm9", "z-score": "inactive: 0.927"}
{"sequence": "CCCGGAGCUUGAAUUACUGTT against Usp7", "z-score": "inactive: -1.76"}
{"sequence": "GGUGGAAAAGCCUUACAGATT against Sry", "z-score": "inactive: 0.125"}
{"sequence": "GGAUACAGUUAAGAGAUAUTT against Xpr1", "z-score": "inactive: 0.84"}
{"sequence": "CCACAGAGCUGGUGUAAAGTT against Tlx2", "z-score": "inactive: -0.175"}
{"sequence": "GGAUUUCAACUUGUUCUAUTT against Mmp1b", "z-score": "inactive: 0.608"}
{"sequence": "CCAUUACGAAUUUUGCUUUTT against Serpina11", "z-score": "inactive: 0.606"}
{"sequence": "GCAAUCCUAUUUGAUGACUTT against Ninj2", "z-score": "inactive: -0.119"}
{"sequence": "GGUGUGUGAACCAUGUGUGTT against Olfr157", "z-score": "inactive: -1.02"}
{"sequence": "GGAAGUCCAUCUCUUUUGCTT against Olfr56", "z-score": "inactive: 0.0693"}
{"sequence": "GCACGAUUUAGACACCAAGTT against 2810012L14Rik", "z-score": "inactive: -2.17"}
{"sequence": "GGAGGCUAUUACUGUUUAUTT against 3110001A13Rik", "z-score": "inactive: 0.095"}
{"sequence": "GGAAAACUACCUCUUUUGATT against Cbll1", "z-score": "inactive: 1.57"}
{"sequence": "GGGACCAGAUAGAAAUUAUTT against D10Ertd610e", "z-score": "inactive: 0.644"}
{"sequence": "CCAACAUCCUUAAGCGGCUTT against Prss15", "z-score": "inactive: -1.06"}
{"sequence": "GCUGGUAAACAUAGGUGGCTT against C1qtnf4", "z-score": "inactive: 0.367"}
{"sequence": "GCAAAAGCGGGUCAAAAAATT against 1700108M19Rik", "z-score": "inactive: 1.61"}
{"sequence": "GGAGUUCCUGAGACAGUACTT against Mcm5", "z-score": "inactive: -0.0249"}
{"sequence": "GGUGCUUCUUCACUCCAUGTT against Vars2l", "z-score": "inactive: -0.704"}
{"sequence": "GCUCAUCGCUGAUUCGACATT against A830025F02Rik", "z-score": "inactive: 0.709"}
{"sequence": "CCAAAUUUUACUGCACGUGTT against 1500002M01Rik", "z-score": "inactive: -0.367"}
{"sequence": "GCAAGAAGGUUAUUCUAUATT against Mjd", "z-score": "inactive: -0.777"}
{"sequence": "CCAUAGCACUAAAUCAGAUTT against 4933421G18Rik", "z-score": "inactive: 0.387"}
{"sequence": "GGCCAUCAGUGUGGAAUGUTT against BC004004", "z-score": "inactive: -2.16"}
{"sequence": "GGUAAAAUCACGCAGUAAATT against Ppp1r3a", "z-score": "inactive: -1.03"}
{"sequence": "GGAAUAUCCGUAAUAACUATT against Grin2b", "z-score": "inactive: 0.706"}
{"sequence": "GGAUCUUGAUCCACAUCUCTT against Padi6", "z-score": "inactive: -0.331"}
{"sequence": "GGCAUUUCAACUGGACCCATT against Lamb1-1", "z-score": "inactive: -0.686"}
{"sequence": "GGUAGAAGCUGUCUUCAGATT against Mrps30", "z-score": "inactive: -0.429"}
{"sequence": "GGAAAAGAUAACUCAGACATT against Hrg", "z-score": "inactive: -0.0231"}
{"sequence": "GGAACACACUUUUACCAUUTT against Clstn3", "z-score": "inactive: 0.00803"}
{"sequence": "GCCAAUGAUAGAUUUGAACTT against D19Ertd737e", "z-score": "inactive: -0.0973"}
{"sequence": "AUUACAAGGUUUGUGGAUATT against 9930109F21", "z-score": "inactive: -0.43"}
{"sequence": "CGGUCCAAUCUUCUACCCUTT against Rnaset2", "z-score": "inactive: 0.965"}
{"sequence": "GGAAAAGGCCAAAAGCUGUTT against Rnd1", "z-score": "inactive: -0.663"}
{"sequence": "CGGAAGAUGUUAAAACUAUTT against BC010552", "z-score": "inactive: 0.853"}
{"sequence": "GGAAUCUCCGAAGCAUGAATT against Sorbs1", "z-score": "inactive: -1.58"}
{"sequence": "GGAACAAGAGAAUGAUGAATT against Col5a2", "z-score": "inactive: -0.71"}
{"sequence": "CGCAGAUCAAUUUUCAUAGTT against Kif2a", "z-score": "inactive: -1.25"}
{"sequence": "GGUUCAGUUUGGAAAUGAATT against 1700009P03Rik", "z-score": "inactive: 0.642"}
{"sequence": "CCCUAUCCUAAAAGCAGACTT against E430018J23Rik", "z-score": "inactive: -0.324"}
{"sequence": "GGGUUUGACAACUUGACCUTT against Als2cr2", "z-score": "inactive: -0.341"}
{"sequence": "GGACUUGCCUUGAUCGCUATT against C730026E21Rik", "z-score": "inactive: 0.793"}
{"sequence": "GCCUUUGCGCAUAUGCUCUTT against BC022692", "z-score": "inactive: -0.156"}
{"sequence": "UGCACUGAGGAAUAAGGACTT against Olfr111", "z-score": "inactive: -0.491"}
{"sequence": "GGUUCUGGUUUAGAUGCUATT against Hist3h2a", "z-score": "inactive: -0.662"}
{"sequence": "GGAUGAAAAUCAAAGAAGUTT against Sfrp1", "z-score": "inactive: 0.433"}
{"sequence": "CCAGGAUACGGUGUGGUAUTT against Prss21", "z-score": "inactive: 0.0483"}
{"sequence": "GCCCACAGUCAUUAAACUATT against 9530066K23Rik", "z-score": "inactive: -0.906"}
{"sequence": "GCACAUCAUUGCUACAGAGTT against Mars", "z-score": "inactive: -2.78"}
{"sequence": "GGGUGAGAUGAAAUGCAUCTT against Efemp2", "z-score": "inactive: -1.48"}
{"sequence": "GGCAGCUAUUGCUCUGGAATT against 5730596B20Rik", "z-score": "inactive: -0.426"}
{"sequence": "GCGAUGAGAUUGUUGCUGUTT against 2900001O04Rik", "z-score": "inactive: -0.0787"}
{"sequence": "GGGCUGUCUAAGAAUGCAATT against 4921520L01Rik", "z-score": "inactive: 0.172"}
{"sequence": "CGUGUAGUGAAAAAUCUUGTT against 6030405A18", "z-score": "inactive: 0.109"}
{"sequence": "GGAUGAUCACAAAGGUAUATT against 4632404H12Rik", "z-score": "inactive: -1.27"}
{"sequence": "GCAUACUUUCCACAAUGAUTT against V1rb1", "z-score": "inactive: 0.103"}
{"sequence": "GCUAGCAACAUCUUGGGCATT against Cntn2", "z-score": "inactive: -1.08"}
{"sequence": "GGUUCGACGAAGAUCAGAGTT against Akap1", "z-score": "inactive: -0.715"}
{"sequence": "CCAGUUUGGUAAUCAUGAATT against Cyb561d2", "z-score": "inactive: 0.894"}
{"sequence": "GCCAUGUUUUAGACCUCCUTT against F730047E07Rik", "z-score": "inactive: -2.8"}
{"sequence": "CCUACUUGAGGUUCAUCGUTT against Zmynd11", "z-score": "inactive: 0.307"}
{"sequence": "GCAUGAUUUAGAUCGAGUATT against Uqcrfs1", "z-score": "inactive: -1.17"}
{"sequence": "GGCAAUGGCUUGGUCUUUUTT against Mapk6", "z-score": "inactive: 0.0357"}
{"sequence": "GGGAAAUCUUCAUUUCUUUTT against Nsd1", "z-score": "inactive: 0.0192"}
{"sequence": "GCAUUAACUGUCUUGAUCCTT against Olfr356", "z-score": "inactive: 0.337"}
{"sequence": "CCUGGCCGUCAUAGAUCUCTT against Olfr464", "z-score": "inactive: 0.584"}
{"sequence": "GGAAAUUGAAGAGAAAGUGTT against MGC6357", "z-score": "inactive: -0.114"}
{"sequence": "CCGAAGCAUGAAGAAUCUATT against Tubd1", "z-score": "inactive: 1.51"}
{"sequence": "GCAAAAUAGAUCAGUAUUCTT against Gabra6", "z-score": "inactive: 0.595"}
{"sequence": "GGAGAUGUGUCCUUGACGATT against Havcr1", "z-score": "inactive: 1.48"}
{"sequence": "GGGUUUUAUCAGCUAAAAATT against D3Bwg0562e", "z-score": "inactive: 2.55"}
{"sequence": "CGAAGUUCAUUCCUGUCUATT against Myf6", "z-score": "inactive: -0.688"}
{"sequence": "GCCUAGCUGACAUUAAAGGTT against 1700017I11Rik", "z-score": "inactive: 0.228"}
{"sequence": "GGACAUCAAGCCCUUACCATT against Rxrg", "z-score": "inactive: -1.14"}
{"sequence": "GGUGAAGUGGAAGAUUCGGTT against Ror2", "z-score": "inactive: 0.0372"}
{"sequence": "GGAAGUAUUUGAUCAUGGATT against Smarca5", "z-score": "inactive: -1.14"}
{"sequence": "CCCGCAUGCUCUUUGUAACTT against 4632411B12Rik", "z-score": "inactive: -0.714"}
